Binding data for twelve molecules are collected here from US20190177366A1.

Amino acid sequences for entries named in this document (tags omitted). A change or cut given only in a name is not applied to a line headed by its entry.
UniProt Q8NBP7: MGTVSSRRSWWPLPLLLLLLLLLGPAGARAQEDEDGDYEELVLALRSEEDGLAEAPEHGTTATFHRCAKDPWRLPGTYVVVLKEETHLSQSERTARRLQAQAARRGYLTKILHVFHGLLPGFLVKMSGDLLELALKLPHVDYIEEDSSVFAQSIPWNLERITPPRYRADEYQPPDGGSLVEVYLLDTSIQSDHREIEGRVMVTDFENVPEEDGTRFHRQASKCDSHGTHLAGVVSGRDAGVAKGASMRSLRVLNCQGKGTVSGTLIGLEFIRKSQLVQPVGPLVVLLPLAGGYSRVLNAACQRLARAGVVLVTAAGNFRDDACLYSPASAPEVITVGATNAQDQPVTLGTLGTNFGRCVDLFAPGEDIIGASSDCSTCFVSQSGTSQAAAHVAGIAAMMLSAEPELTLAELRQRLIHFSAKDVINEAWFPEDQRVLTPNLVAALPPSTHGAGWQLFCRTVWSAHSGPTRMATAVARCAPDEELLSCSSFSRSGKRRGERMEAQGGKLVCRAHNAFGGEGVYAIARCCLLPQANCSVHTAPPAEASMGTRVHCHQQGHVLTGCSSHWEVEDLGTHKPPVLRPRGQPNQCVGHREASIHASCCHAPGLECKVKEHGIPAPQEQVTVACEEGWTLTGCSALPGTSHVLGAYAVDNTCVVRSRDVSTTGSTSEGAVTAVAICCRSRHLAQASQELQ

No constants are given. Whether binding was seen depends on the method and setting. Some entries that bind do so weakly or less than the wild type.

The target of the first assay is PCSK9ΔCRDΔhelix (human) (UniProt Q8NBP7). Nature of the assay: crystal structure.
For the molecule TVFTSWEEYLDWVGSGDLMPWNLVRIGLLR (N-terminal acetyl; C-terminal amide) [Compound 20], the binding result was “binds”.
As for CFIPWNLQRIGLLC (N-terminal acetyl; C-terminal amide; disulfide-constrained macrocycle) [Compound 31], the binding entry is “binds”.
As for TVFTSWEEYLDWVGSGCWNLKRIGSQGC (N-terminal acetyl; C-terminal amide; disulfide C17-C28) [Compound 2], the binding result is given as “binds”.
Consider CWNLKRIGSQGC (N-terminal acetyl; C-terminal amide; disulfide-cyclized) [Compound 21], for which the binding result was “binds”.
Same read-out and setting: the same measure for SGCRLPWNLQRIGLPC (N-terminal acetyl; C-terminal amide; disulfide-constrained macrocycle) [Compound 30]: “binds”; for CRLPWNLQRIGLPC (N-terminal acetyl; C-terminal amide; disulfide-constrained macrocycle) [Compound 32]: “binds”.
Take SGCFIPWNLQRIGLLC (free N-terminus; C-terminal amide; disulfide-constrained macrocycle) [Compound 26]: the binding entry was “binds”.

The next assay addresses proprotein convertase subtilisin/kexin type 9 (PCSK9) (human) (UniProt Q8NBP7). Nature of the assay: phage spot ELISA.
As to TAFTSWEEYLDWVGSGDCNLWGDDGKYRLCF [SEQ ID NO 333], the binding result is on record as “binds”.
Regarding TAFTSWEEYLDWVGSGQISYLRNA [SEQ ID NO 342], the binding entry is listed as “binds”.
SGCRLPWNLQRIGLPC [SEQ ID NO 392]: the binding entry is given as “binds”.
The same measure, in the same setting: to TAFTSWEEYLDWVGSGRCGLAWCVVLVDQ [SEQ ID NO 365] belongs “binds”; to TAFTSWEEYLDWVGSGGVLGVGGMWIA [SEQ ID NO 335], “binds”.
